Results taken from the supplement of paper PMC10849652.
This is one part of the list.

Protein sequences, listed by entry. Tags and fused reporters are not part of them. Lines headed by an entry give the natural chain unless they say otherwise; changes in a name come on top.
UniProt Q9UI95, whole entry, looked up: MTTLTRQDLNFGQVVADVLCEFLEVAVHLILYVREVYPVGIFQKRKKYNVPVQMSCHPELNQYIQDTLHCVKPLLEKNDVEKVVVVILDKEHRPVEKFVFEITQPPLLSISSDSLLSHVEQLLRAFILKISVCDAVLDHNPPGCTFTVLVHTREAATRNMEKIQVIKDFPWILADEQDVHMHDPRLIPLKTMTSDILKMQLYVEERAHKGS
UniProt P29966: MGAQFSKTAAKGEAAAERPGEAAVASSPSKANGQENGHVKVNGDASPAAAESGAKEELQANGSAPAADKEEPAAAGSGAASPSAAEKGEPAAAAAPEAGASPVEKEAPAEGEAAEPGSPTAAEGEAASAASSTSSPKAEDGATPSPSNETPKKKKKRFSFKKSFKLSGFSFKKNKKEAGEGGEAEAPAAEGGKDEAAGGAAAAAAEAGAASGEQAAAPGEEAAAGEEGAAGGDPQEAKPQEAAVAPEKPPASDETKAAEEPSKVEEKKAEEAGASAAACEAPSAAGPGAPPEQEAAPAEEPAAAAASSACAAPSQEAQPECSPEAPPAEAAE
UniProt Q8N653: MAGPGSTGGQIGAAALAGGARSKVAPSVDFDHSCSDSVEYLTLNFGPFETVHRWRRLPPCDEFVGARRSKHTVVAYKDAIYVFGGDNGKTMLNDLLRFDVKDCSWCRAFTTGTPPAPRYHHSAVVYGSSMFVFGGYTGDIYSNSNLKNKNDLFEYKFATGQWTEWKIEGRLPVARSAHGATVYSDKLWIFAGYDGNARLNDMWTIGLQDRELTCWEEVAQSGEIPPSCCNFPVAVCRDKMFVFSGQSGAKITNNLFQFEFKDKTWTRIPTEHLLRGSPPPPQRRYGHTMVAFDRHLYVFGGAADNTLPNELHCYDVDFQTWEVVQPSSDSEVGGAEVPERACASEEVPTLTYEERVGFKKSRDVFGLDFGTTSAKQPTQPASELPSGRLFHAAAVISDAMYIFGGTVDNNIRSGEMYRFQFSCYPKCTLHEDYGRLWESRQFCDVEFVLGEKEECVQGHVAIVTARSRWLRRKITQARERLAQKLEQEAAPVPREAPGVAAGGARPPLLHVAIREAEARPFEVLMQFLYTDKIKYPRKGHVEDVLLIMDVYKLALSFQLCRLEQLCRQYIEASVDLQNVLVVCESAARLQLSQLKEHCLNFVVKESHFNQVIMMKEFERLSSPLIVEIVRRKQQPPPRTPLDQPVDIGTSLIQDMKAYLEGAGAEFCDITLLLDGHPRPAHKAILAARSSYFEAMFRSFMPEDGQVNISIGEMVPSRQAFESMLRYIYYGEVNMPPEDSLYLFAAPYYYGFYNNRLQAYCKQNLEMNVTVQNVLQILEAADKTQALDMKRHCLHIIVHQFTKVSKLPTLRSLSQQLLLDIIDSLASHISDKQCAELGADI
UniProt P43358: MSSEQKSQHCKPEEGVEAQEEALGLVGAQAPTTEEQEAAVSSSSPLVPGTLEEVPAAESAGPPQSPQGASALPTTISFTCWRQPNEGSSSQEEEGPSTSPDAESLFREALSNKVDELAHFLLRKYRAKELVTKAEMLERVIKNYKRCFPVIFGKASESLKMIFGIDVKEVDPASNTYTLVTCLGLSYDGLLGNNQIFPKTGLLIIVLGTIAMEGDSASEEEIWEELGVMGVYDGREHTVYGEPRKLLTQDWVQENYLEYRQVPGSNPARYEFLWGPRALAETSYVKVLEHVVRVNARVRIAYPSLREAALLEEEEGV
UniProt P07948: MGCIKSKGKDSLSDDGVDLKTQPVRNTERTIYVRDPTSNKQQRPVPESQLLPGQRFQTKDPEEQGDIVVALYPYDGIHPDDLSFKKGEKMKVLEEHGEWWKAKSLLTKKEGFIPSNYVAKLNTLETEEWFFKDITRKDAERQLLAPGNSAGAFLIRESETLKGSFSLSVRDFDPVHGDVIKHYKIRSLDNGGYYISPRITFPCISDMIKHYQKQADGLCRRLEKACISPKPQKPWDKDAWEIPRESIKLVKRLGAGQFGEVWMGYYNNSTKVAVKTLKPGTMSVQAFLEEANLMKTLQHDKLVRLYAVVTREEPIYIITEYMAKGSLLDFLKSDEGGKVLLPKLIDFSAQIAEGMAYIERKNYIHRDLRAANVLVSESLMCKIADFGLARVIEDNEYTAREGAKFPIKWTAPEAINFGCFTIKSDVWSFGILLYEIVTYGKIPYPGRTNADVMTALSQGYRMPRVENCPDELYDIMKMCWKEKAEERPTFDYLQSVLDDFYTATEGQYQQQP
UniProt Q16706: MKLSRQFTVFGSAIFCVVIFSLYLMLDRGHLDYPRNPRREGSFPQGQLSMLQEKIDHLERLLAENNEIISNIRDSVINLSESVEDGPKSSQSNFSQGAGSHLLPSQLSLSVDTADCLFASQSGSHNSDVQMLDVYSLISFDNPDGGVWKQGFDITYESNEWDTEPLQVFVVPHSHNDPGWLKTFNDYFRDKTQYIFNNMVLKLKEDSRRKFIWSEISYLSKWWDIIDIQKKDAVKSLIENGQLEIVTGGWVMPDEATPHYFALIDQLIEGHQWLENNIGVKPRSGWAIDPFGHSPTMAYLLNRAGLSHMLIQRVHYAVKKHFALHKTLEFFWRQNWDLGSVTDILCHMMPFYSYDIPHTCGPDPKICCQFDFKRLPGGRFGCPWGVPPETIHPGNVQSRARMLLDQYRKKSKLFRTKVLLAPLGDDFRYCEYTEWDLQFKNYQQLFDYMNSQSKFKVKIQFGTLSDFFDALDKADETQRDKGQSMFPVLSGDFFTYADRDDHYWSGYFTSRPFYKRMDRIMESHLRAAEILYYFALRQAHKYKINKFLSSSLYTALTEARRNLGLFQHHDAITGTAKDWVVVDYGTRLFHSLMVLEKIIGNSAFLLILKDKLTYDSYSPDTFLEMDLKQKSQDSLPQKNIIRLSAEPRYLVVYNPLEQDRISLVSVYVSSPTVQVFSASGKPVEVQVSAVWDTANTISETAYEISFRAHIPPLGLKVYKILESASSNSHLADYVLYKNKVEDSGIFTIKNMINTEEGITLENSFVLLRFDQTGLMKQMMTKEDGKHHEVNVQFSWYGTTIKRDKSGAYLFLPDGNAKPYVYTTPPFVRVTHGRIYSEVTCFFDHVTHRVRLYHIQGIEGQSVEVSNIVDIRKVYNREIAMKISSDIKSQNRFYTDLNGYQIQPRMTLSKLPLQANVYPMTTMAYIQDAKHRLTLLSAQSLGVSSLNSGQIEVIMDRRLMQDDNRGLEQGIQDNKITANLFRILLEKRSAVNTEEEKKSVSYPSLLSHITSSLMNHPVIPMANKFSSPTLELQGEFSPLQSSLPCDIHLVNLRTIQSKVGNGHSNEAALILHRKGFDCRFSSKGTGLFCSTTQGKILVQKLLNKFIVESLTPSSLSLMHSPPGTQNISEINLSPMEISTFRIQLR
UniProt Q13257, whole entry, looked up: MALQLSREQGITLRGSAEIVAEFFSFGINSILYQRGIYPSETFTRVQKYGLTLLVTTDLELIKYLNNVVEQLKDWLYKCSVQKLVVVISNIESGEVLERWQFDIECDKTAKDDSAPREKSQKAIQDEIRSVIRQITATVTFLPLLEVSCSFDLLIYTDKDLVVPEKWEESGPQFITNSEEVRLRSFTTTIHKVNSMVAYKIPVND
UniProt P20645: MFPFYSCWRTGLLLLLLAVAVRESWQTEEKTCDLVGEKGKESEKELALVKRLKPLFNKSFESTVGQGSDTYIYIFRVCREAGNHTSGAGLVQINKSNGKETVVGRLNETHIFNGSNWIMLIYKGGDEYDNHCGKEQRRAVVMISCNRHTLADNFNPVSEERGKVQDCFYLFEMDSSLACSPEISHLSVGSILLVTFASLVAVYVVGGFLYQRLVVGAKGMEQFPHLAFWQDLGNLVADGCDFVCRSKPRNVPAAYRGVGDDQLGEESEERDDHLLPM
UniProt P43366: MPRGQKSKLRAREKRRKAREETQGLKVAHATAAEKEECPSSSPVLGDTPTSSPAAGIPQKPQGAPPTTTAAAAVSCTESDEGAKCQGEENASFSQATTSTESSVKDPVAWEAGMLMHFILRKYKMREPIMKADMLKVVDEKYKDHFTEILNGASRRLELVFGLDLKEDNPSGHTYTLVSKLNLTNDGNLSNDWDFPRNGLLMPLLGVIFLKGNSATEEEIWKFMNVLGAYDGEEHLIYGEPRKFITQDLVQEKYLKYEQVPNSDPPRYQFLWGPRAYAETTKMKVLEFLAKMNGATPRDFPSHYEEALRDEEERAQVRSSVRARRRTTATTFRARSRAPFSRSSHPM
UniProt Q6ZN28: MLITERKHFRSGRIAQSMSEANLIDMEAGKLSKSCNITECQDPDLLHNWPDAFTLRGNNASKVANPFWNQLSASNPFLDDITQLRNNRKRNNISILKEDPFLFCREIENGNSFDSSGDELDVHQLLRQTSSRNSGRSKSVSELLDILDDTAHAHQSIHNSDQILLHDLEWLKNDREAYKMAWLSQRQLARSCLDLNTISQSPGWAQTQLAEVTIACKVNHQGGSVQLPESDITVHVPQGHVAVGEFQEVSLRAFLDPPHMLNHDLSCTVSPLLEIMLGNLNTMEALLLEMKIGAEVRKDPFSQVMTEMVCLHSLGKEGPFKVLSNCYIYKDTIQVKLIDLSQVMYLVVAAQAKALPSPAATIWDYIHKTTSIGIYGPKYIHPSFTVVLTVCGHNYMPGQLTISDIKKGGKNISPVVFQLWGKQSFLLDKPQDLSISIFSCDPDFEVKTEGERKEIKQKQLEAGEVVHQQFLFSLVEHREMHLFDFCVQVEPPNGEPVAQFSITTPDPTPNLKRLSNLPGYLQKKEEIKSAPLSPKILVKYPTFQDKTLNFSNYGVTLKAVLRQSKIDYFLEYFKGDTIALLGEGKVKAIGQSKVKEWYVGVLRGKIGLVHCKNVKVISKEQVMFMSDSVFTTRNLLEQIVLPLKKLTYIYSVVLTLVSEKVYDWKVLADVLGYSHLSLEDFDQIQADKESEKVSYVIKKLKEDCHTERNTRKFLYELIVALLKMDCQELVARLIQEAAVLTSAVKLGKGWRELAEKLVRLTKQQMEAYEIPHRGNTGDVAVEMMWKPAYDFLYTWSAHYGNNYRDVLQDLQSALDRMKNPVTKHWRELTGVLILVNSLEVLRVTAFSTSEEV
UniProt Q9BQ69: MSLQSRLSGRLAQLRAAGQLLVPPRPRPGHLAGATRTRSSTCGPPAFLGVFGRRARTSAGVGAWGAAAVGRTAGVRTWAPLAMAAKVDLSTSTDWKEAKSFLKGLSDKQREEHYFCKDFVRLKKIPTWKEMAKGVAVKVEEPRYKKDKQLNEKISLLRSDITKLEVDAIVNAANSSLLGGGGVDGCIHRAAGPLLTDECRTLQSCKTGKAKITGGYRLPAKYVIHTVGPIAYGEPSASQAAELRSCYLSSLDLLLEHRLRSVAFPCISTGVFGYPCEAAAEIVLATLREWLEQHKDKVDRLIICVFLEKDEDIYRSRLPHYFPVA
UniProt P49006: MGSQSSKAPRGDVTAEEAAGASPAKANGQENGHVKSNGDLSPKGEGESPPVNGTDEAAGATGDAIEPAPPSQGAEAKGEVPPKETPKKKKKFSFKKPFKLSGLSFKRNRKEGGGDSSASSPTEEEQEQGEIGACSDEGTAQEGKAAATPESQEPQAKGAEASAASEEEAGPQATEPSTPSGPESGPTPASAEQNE
UniProt Q3KQU3: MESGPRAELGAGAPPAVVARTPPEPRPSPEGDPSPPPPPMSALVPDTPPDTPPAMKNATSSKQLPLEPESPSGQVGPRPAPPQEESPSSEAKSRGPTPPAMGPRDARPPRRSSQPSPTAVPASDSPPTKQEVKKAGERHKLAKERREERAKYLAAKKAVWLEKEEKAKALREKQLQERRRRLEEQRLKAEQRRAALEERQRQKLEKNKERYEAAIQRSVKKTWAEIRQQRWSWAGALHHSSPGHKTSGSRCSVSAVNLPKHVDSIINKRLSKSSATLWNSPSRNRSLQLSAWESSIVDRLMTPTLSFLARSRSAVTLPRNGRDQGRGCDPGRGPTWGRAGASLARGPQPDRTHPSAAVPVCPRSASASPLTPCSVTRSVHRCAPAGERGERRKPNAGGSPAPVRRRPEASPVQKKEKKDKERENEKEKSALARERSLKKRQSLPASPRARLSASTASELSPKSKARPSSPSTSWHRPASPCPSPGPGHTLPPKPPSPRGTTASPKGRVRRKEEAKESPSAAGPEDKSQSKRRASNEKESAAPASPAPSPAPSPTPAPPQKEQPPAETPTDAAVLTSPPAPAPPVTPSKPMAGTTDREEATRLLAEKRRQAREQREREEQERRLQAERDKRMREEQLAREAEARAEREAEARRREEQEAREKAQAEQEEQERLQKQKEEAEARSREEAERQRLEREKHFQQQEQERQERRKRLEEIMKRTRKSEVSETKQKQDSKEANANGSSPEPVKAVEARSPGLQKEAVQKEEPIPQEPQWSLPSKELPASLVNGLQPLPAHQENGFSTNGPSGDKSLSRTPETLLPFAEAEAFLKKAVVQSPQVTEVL

Key:
Assay in all cases: log2 fold change, soluble protein after heating vs DMSO (PISA); higher = thermal stabilisation; K562 lysate, 10 uM; active = over 0.2 and 3.5 SD of the protein, either way, in both replicates (recomputed)
[1] = compound: NCC(=O)Nc1ccc(-n2nc(C(F)(F)F)cc2-c2ccc3c(ccc4ccccc43)c2)cc1
Outline: (§1)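 Quantification was by TMTpro 16plex LC-MS/MS with equalised channel sums, applied to the supernatant after 21,000xg for 90 min. Samples were crude K562 extract at 1 mg/mL protein in PBS pH 7.4 with 1 mM MgCl2, treated with 10 μM compound for 30 min, heated for 3 min across 48°C-58°C, pooled and brought to 0.5% NP-40 at 4°C. Values are log-two fold changes in thermal stability relative to solvent controls, from duplicates.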

[2] = compound: O=C(CCCCCCC(=O)Nc1ccccc1)NO [vorinostat]
Outline: as §1

[3] = compound: O=C(O)c1ccc2c(c1)nc(Nc1cccc(Cl)c1)c1ccncc12 [silmitasertib]
Outline: as §1

[4] = compound: O=C1NC(=O)C(c2cnc3ccccn23)=C1c1cn2c3c(cc(F)cc13)CN(C(=O)N1CCCCC1)CC2
Outline: as §1

[5] = compound: c1cn2cc(-c3ccc4cn[nH]c4c3)nc(Nc3ccc(N4CCOCC4)cc3)c2n1 [entospletinib]
Outline: as §1

Measured: log2 fold change

MALSU1 (UniProt Q96EH3)
inactive: [1] -0.002 | [2] -0.015 | [3] -0.025 | [4] -0.005 | [5] -0.009

MAGEC2 (UniProt Q9UBF1)
inactive: [1] -0.005 | [2] -0.005 | [3] -0.008 | [4] -0.011 | [5] 0.03

MAD2L2 (UniProt Q9UI95)
active: [2] -0.348
inactive: [1] 0.075 | [3] -0.006 | [4] -0.02 | [5] 0.017

MACF1 (UniProt H3BQK9)
inactive: [1] 0.009 | [2] -0.09 | [3] 0.02 | [4] 0.001 | [5] -0.032

MARCKS (UniProt P29966)
inactive: [1] -0.04 | [2] 0.038 | [3] -0.022 | [4] -0.094 | [5] 0.021

LZTR1 (UniProt Q8N653)
inactive: [1] -0.022 | [3] 0.005 | [4] 0.013 | [5] 0.055
active: [2] -0.472

MACF1, A0A0A6YYJ5
inactive: [1] -0.196 | [2] -0.061 | [3] -0.008 | [4] -0.002 | [5] -0.035

MAP2K2 (UniProt P36507)
inactive: [1] -0.031 | [2] -0.088 | [3] 0.099 | [4] 0.032 | [5] 0.04

MAGEA4 (UniProt P43358)
inactive: [1] -0.079 | [2] 0.052 | [3] -0.034 | [4] 0.036 | [5] 0.019

LYN (UniProt P07948)
inactive: [1] 0.025 | [2] -0.305 | [3] -0.058 | [4] -0.108 | [5] 0.149

MAN2A1 (UniProt Q16706)
inactive: [1] -0.03 | [2] 0.121 | [3] -0.017 | [4] -0.009 | [5] 0.042

MAP3K3 isoform 2 (UniProt Q99759)
inactive: [1] 0.116 | [2] -0.011 | [3] -0.142 | [4] -0.035 | [5] 0.066

MAP2K3 isoform 3 (UniProt P46734)
active: [2] -0.577
inactive: [1] -0.033 | [3] 0.149 | [4] 0.025 | [5] 0.072

MAD2L1 (UniProt Q13257)
inactive: [1] -0.006 | [2] 0.024 | [3] 0 | [4] -0.021 | [5] 0.045

MAP3K20 (UniProt Q9NYL2)
inactive: [1] 0.058 | [2] -0.029 | [3] 0.019 | [4] 0.044 | [5] 0.054

M6PR (UniProt P20645)
inactive: [1] 0.026 | [2] -0.114 | [3] 0.014 | [4] -0.002 | [5] -0.056

Random excerpt: 2 records from the list
MAP2K3 isoform 3 (UniProt P46734)
active: [2] -0.577
inactive: [1] -0.033 | [3] 0.149 | [4] 0.025 | [5] 0.072

MAP3K20 (UniProt Q9NYL2)
inactive: [1] 0.058 | [2] -0.029 | [3] 0.019 | [4] 0.044 | [5] 0.054

(cont.)

MAP2K1 (UniProt Q02750)
inactive: [1] -0.005 | [2] -0.116 | [3] 0.108 | [4] 0.006 | [5] 0.03

MARK2 (UniProt E9PC69)
active: [3] 0.486
inactive: [1] 0.026 | [2] -0.167 | [4] 0.006 | [5] 0.153

MAGEB1 (UniProt P43366)
inactive: [1] 0.017 | [2] -0.021 | [3] 0.032 | [4] -0.006 | [5] 0.034

MAP1A (UniProt P78559)
inactive: [1] 0.007 | [2] 0.026 | [3] -0.017 | [4] 0 | [5] 0.001

MACC1 (UniProt Q6ZN28)
inactive: [1] -0.006 | [2] -0.118 | [3] 0.002 | [4] -0.017 | [5] 0.054

MACROD1 (UniProt Q9BQ69)
active: [2] -0.363
inactive: [1] 0.11 | [3] 0.04 | [4] 0.05 | [5] 0.047

MARCKSL1 (UniProt P49006)
inactive: [1] -0.036 | [2] 0.154 | [3] -0.021 | [4] 0.009 | [5] 0.031

MAP7D1 (UniProt Q3KQU3)
inactive: [1] 0.083 | [2] -0.108 | [3] 0.007 | [4] -0.028 | [5] -0.014
